Experimental data reported in PubChem BioAssay (EPA / NIEHS).
The inconclusive results got no clear call from the source; some entries with a clear call stand among them for comparison. Where the call is inconclusive, the potency comes from a doubtful curve fit. Activity calls are given as the source filed them. The calls were made as follows: active = hit-call score of the fitted dose curve at least 0.9, where 1 is the maximum; inconclusive = response in the unintended direction; inactive = score below 0.9.

By UniProt entry, the sequences of proteins in these tests, tags left out. Where a name states a change or a piece, a line headed by the entry shows the natural chain unless it says otherwise.
UniProt P10275: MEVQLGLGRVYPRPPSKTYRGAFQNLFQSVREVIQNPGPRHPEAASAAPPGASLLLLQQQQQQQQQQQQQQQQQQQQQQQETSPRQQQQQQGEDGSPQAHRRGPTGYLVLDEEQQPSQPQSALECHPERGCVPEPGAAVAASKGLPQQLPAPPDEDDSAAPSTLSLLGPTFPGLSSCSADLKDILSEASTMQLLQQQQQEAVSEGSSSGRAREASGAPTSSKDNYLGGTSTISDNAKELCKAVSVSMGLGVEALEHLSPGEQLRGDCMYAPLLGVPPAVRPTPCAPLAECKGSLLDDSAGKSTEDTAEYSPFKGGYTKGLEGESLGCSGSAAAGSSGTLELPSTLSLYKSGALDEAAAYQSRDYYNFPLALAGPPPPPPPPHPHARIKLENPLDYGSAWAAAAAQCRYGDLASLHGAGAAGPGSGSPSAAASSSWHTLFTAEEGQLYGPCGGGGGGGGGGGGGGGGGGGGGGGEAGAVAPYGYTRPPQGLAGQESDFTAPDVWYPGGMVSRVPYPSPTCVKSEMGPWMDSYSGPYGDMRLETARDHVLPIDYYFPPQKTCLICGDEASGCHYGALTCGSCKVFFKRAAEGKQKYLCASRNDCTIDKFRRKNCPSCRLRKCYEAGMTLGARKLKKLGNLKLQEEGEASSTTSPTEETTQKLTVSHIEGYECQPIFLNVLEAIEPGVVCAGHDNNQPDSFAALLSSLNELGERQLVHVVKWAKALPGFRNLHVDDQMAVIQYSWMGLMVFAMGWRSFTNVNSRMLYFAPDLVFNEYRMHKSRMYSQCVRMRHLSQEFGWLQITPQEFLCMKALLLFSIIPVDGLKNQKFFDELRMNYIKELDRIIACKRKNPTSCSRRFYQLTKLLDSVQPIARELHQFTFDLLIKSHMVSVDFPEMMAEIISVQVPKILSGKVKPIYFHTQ

Experiments:
AR (gene 367) = AR (gene 367) (UniProt P10275); test: ACEA_AR_agonist_80hr: ACEA Biosciences xCELLigence Real-Time Cell Analysis on Androgen Receptor Agonism for Proliferation (AID 2283783);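 also: hits increase impedance growth signal above DMSO baseline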
In short: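 Proliferation of 22Rv1 prostate cancer cells tracked by electrical impedance, endpoint taken at 80 hours after dosing. Eight-point 1:4 dilutions from 100 uM maximum final, duplicate; testosterone and MG132 as positive controls, assay media as negative.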

[1] = ACEA_ER_AUC_viability: ACEA Biosciences xCELLigence Real-Time Cell Analysis on Estrogen Receptor Agonism for Viability (AID 2283782);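 also: continuous compound exposure with impedance area under curve over 80 h; hit means loss of impedance signal meaning reduced cell growth or viability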
In short: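 T47D cells preconditioned in phenol red-free RPMI with charcoal-stripped FBS, then dosed with 8-point 1:4 series from 100 uM (up to 0.5% DMSO). Impedance monitored up to ~80 h; area-under-curve loss versus DMSO taken as viability.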

[2] = STM_H9_NormalizedViability: Cytotoxicity Assessment at 120 hours in the Stemina devTOX quickPredict H9 human embryonic stem cell (hESC)-based Assay (AID 2283784)
In short: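 Chemicals are tested blinded on H9 human embryonic stem cells in the pluripotent state, with medium exchanged daily. After background correction, fluorescence from CellTiter-Fluor is scaled against 0.1% DMSO wells, and decreases are scored.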

## Cc1ccc2ccccc2c1C
AR (gene 367)
  AC50: inconclusive: 2.41 µM

## O=C(Nc1ccccc1)c1ccccc1I
AR (gene 367)
  AC50: inconclusive: 0.516 µM

## ClC1(Cl)C2(Cl)C3(Cl)C4(Cl)C(Cl)(Cl)C5(Cl)C3(Cl)C1(Cl)C5(Cl)C24Cl (stereo not given)
[1]
  outcome: inactive
AR (gene 367)
  AC50: inconclusive: 17.4 µM
[2]
  outcome: inactive

## CCOC(=O)COc1cc(-c2nn(C)c(OC(F)F)c2Cl)c(F)cc1Cl
AR (gene 367)
  AC50: inconclusive: 15.4 µM

## Cc1ccccc1C(=O)Nc1cccc(OC(C)C)c1
[1]
  AC50: inconclusive: 0.0162 µM
AR (gene 367)
  AC50: inconclusive: 0.94 µM

## C[N+]1(C)CCCCC1
[1]
  AC50: inconclusive: 50 µM
AR (gene 367)
  AC50: inconclusive: 50 µM

## CC1(C)CN=C(NN=C(/C=C/c2ccc(C(F)(F)F)cc2)/C=C/c2ccc(C(F)(F)F)cc2)NC1
AR (gene 367)
  AC50: inconclusive: 0.238 µM

## O=C(O)CCCOc1ccc(Cl)cc1Cl
AR (gene 367)
  AC50: inconclusive: 51 µM

## CC(C)(c1ccc(OCC2CO2)cc1)c1ccc(OCC2CO2)cc1 (stereo not given)
[2]
  AC50: inconclusive: 6.85 µM

## CO[C@@H]1[C@H](OC(=O)NC(=O)CCl)CC[C@]2(CO2)[C@H]1[C@@]1(C)O[C@@H]1CC=C(C)C
AR (gene 367)
  AC50: inconclusive: 0.00181 µM

## CCCCC(CC)COP(=O)(Oc1ccccc1)Oc1ccccc1 (stereo not given)
AR (gene 367)
  AC50: inconclusive: 4.28 µM

## CCCCCCCCOC(=O)c1ccccc1C(=O)OCCCCCCCC
[1]
  AC50: inconclusive: 50 µM
[2]
  AC50: inconclusive: 9.92 µM

## COCCl
AR (gene 367)
  AC50: inconclusive: 1.48 µM

## CC(C)Oc1cc(-n2nc(C(C)(C)C)oc2=O)c(Cl)cc1Cl
AR (gene 367)
  AC50: inconclusive: 50 µM

## CSc1nnc(C(C)(C)C)c(=O)n1N
[1]
  outcome: inactive
[2]
  outcome: inactive

## CCNc1nc(Cl)nc(NC(C)(C)C)n1
[1]
  AC50: inconclusive: 28.8 µM
AR (gene 367)
  outcome: inactive

## O=[N+]([O-])c1ccccc1
[1]
  AC50: inconclusive: 50 µM
[2]
  AC50: inconclusive: 30.4 µM

## CC1=C2C[C@H]3[C@@H](CC=C4C[C@@H](O)CC[C@@]43C)[C@@H]2CC[C@]12O[C@@H]1C[C@H](C)CN[C@H]1[C@H]2C
AR (gene 367)
  AC50: inconclusive: 50 µM

## CCCCCCCCn1sccc1=O
[2]
  AC50: active: 47.7 µM

## CCON=C(CC)C1=C(O)CC(c2c(C)cc(C)cc2C)CC1=O (stereo not given)
AR (gene 367)
  AC50: inconclusive: 50 µM
[2]
  AC50: inconclusive: 39.9 µM

## COP(=S)(OC)Oc1ccc(Sc2ccc(OP(=S)(OC)OC)cc2)cc1
AR (gene 367)
  AC50: inconclusive: 16.6 µM

## Sc1ccccc1
[1]
  outcome: inactive
[2]
  AC50: inconclusive: 2.7 µM

## CNC(=O)O/N=C/C(C)(C)S(C)(=O)=O
AR (gene 367)
  AC50: inconclusive: 4.54 µM

## O=[N+]([O-])c1ccc(Cl)c([N+](=O)[O-])c1
[1]
  AC50: active: 1.55 µM
[2]
  AC50: active: 16.5 µM
